These are yes or no findings as the source states them, for the method shown. Binding seen in cells or lysates may run through a third protein.
Target: MDM2 (human (endogenous in ARPE-19)) (UniProt Q00987)
Assay: co-IP; ARPE-19 (RPE) cell lysates in RIPA buffer, precleared; anti-MDM2 antibody, protein A agarose, 4 °C; blotted for p53 and TXNIP; shCtrl and TXNIP knock-down (shTXNIP) cells

Chains of the proteins cited; added tags and fusions are not shown.
UniProt Q00987: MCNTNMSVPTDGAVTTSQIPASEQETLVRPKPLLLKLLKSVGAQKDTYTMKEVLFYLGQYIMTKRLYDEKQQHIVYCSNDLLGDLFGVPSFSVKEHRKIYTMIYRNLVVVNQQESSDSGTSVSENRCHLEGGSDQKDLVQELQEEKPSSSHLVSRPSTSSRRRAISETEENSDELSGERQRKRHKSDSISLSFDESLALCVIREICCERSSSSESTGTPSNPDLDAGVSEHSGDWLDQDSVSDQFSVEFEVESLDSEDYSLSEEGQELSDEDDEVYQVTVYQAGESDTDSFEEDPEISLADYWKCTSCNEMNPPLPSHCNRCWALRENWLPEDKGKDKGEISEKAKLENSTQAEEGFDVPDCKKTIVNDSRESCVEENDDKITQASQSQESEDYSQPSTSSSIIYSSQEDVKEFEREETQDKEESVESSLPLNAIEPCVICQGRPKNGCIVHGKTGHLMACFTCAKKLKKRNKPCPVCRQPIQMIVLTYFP

binding: no binding
B1: Thioredoxin-interacting protein (TXNIP) (protein, UniProt Q9H3M7-1 1-391)
chain: MVMFKKIKSFEVVFNDPEKVYGSGEKVAGRVIVEVCEVTRVKAVRILACGVAKVLWMQGSQQCKQTSEYLRYEDTLLLEDQPTGENEMVIMRPGNKYEYKFGFELPQGPLGTSFKGKYGCVDYWVKAFLDRPSQPTQETKKNFEVVDLVDVNTPDLMAPVSAKKEKKVSCMFIPDGRVSVSARIDRKGFCEGDEISIHADFENTCSRIVVPKAAIVARHTYLANGQTKVLTQKLSSVRGNHIISGTCASWRGKSLRVQKIRPSILGCNILRVEYSLLIYVSVPGSKKVILDLPLVIGSRSGLSSRTSSMASRTSSEMSWVDLNIPDTPEAPPCYMDVIPEDHRLESPTTPLLDDMDGSQDSPIFMYAPEFKFMPPPTYTEVDPCILNNNVQ
